Laboratory results from paper PMC10163288.
Some of the results follow.

B1: il2ra_site2_2erj_normal_mot_HHH_b2_08081_000000268_0001_43_57_H_._HHH_b1_01890_0001_0000700036_0000001_0 (protein)
chain: SSSSDAWEIAARLILEAIELFKNGNPEEARRVIEEAEEEIERLGDETALRYLELALRRLEASSSS
B2: il2ra_site1_2b5i_sap_20_mot_3191cc6481096e02f17c0295a435efb4_0001_af2_000000240_0001_16_31_H_._8cb69178cb18ca82f70eade9eeca9cee_0001_0001_0000200025_0000001_0_0 … (protein)
chain: SSSSVEKLKEAIELFKEADKAKQAGKEEEAKELLEKALELAKAAGAASLARIIESALKDLESSSS
B3: il2ra_site1_1z92_sap_17_mot_9410bc1eedee1757c7b766bec531e3ee_0001_1_000000285_0001_16_30_H_._HEEHE_2503_0001_0000200009_0000001_1_0001_af2pred_0001_af2pred_1_sw … (protein)
chain: TEVEETLREAVEKNDEEELRKFIELLLRDAGDPRLVKALLRILVKRLGLPPEVLERLQELLEELT
B4: il2ra_site1_2b5i_normal_mot_HHH_b2_01040_af2_000000143_0001_42_56_H_._HHH_b1_04969_af2_0002_0000100009_0000001_0 (protein)
chain: SSSSSDEAEEAAREALELLRELLRVDEEEIKELLEEAHEKLEKLNDEALLKRVERLLRLLSSSSS
B5: il2ra_site1_3nfp_sap_31_mot_66bb1f637706d7249e1dd387c51866da_0001_1_000000122_0001_1_12_H_._17594f0aad44365367344f8cc037fc3f_0001_af2_0001_0000500022_0000001_0_ … (protein)
chain: TNLFLRELEEAKKEGTLEELLEEMIEMLKREFKFPPEEAAWLLARDAERLGDPEAAELVEELLRR
B6: il2ra_site1_1z92_sap_12_mot_HHH_b2_00249_af2_000000052_0001_39_52_H_._HHH_b2_07800_0001_0000300015_0000001_0_0001_af2pred_0001_af2pred (protein)
chain: SSSSSSEELEEFVEELVKKYGLSESAKRALERLAREALEQGADEELIKRDLHRAAEFLASSSSSS
B7: il2ra_site2_2erj_normal_mot_91f4e0b9ef636147e55e10354d5068a9_0001_000000168_0001_33_48_H_._HEEHE_1756_af2_0001_0000200003_0000001_0_1_af2pred_0001_af2pred (protein)
chain: DEEELVQRLLEEAAKLAGVPQVTVELNNGEFEITINGDDRQAELLERMAEWLLKEKGIPVRVEVE
B8: il2ra_site1_2b5i_normal_mot_HHH_b1_06520_000000001_0001_1_19_H_._HHH_eva_0123_af2_0001_0000100004_0000001_0_af2pred_0001_af2pred (protein)
chain: SSSDEELFEEANKVFKALARGKITEEWEEIVEELIKIAEELGDERLAEDLEHLLRIIQELLKSSS
B9: il2ra_site2_2erj_sap_21_mot_39ed66e5fba071e4f274ea7f2cf018e6_0001_000000286_0001_17_31_H_._HHH_b1_00857_0001_0000200006_0000001_0_0001_af2pred_0001_af2pred (protein)
chain: SSSSEEREKAKELAARALQLRERGNPEEAEELLREAEEIAREGGDEELLQLIQAALRLIELSSSS
B10: il2ra_site2_2erj_sap_15_mot_HHH_b1_05025_af2_000000233_0001_1_21_H_._HHH_b1_03724_0001_0000300012_0000001_1_0001 (protein)
chain: SSSSDLVEEAARVLLEYLRSHGDPELLRELEELLRELEKEGDPELRRELARLINEIMQKAMSSSS
B11: il2ra_site1_3nfp_normal_mot_ed4c3c7086c1f51adfb21ecdea7692dd_0001_1_af2_000000028_0001_36_50_H_._c99de99df9ecc9fdd090aa5ad7eabf9c_0001_0001_0000100003_0000001_0 … (protein)
chain: DAAKILIEAAVKRNNPRTVERFLEELEKHLRLGNPDAEEAIRLLLELLEELGNEELLRLVEEVLK
B12: il2ra_site1_2b5i_normal_mot_HHH_b2_04910_000000118_0001_1_19_H_._HHH_b2_07005_af2_0001_0000500025_0000001_0_af2pred_0001_af2pred_1 (protein)
chain: SSSSSEITEEVYRLFKEANELLRNGNPEEAKEVLERALELAEELGSPLFERTIKVALEQVGSSSS
B13: il2ra_site2_2erj_normal_mot_HHH_b1_00839_000000020_0001_43_57_H_._HHH_b2_02614_0001_0000200002_0000001_0 (protein)
chain: SSSSSEEQEESARLALELSELALKGDEEKFEEVLEEAKQFAEERNDEFLLRFIRFLERYLSSSSS
B14: il2ra_site1_2b5i_normal_mot_HHH_b1_03543_af2_000000000_0001_42_54_H_._HHH_b2_04113_af2_0001_0000200008_0000001_0_af2pred_dldesign_0_af2pred (protein)
chain: SSSSSKYEELDRLANEAFRLARRGDLERFREVAERAIALAEELGDEKIAAELRFLEELARSSSSS
B15: il2ra_site2_2erj_sap_25_mot_HHH_b2_04375_af2_000000283_0001_22_38_H_._HHH_b2_08019_0001_0001000023_0000001_0_0001 (protein)
chain: SSSSDAEEEVRELLEQAKEAFKNNDLHLVYELLVRAMHVASENNDDEALKLVAEVFEEIAKSSSS
B16: il2ra_site2_2erj_normal_mot_c2bf78bdce995293a161f7082e24b401_0001_af2_000000082_0001_17_32_H_._HHH_b1_04851_0001_0000100001_0000001_0 (protein)
chain: SSSSEVEKEAEELFEEIKEAKERGDLELLYKLANLILHLVAKYKDDHARRLLEEALELAHRSSSS
B17: il2ra_site2_2erj_normal_mot_6bd1339e93f6fdda22195c76da45ec5d_0001_000000136_0001_37_51_H_._HHH_b2_06260_0001_0000100003_0000001_0_af2pred_0001_1_af2pred_swapped (protein)
chain: SSSSSEDEERVEELLEQAEEAAKRDPEKALALLSEAAEIALESNNDELLKLVMEVFTKIARSSSS
B18: il2ra_site1_3nfp_normal_mot_HHH_b1_01159_af2_000000107_0001_1_20_H_._HHH_b2_08137_0001_0000200012_0000001_0_af2pred_0001_af2pred (protein)
chain: SSSSSEEKRRLEELLRRAHELFRRGNPEEAERVLEEAKELAEEAGNEAARRFVEVLLRIVRSSSS
B19: il2ra_site2_3nfp_sap_24_mot_66bb1f637706d7249e1dd387c51866da_0001_1_000000188_0001_1_12_H_._HHH_b2_08220_0001_0000200006_0000001_0_0001_af2pred_0001_af2pred (protein)
chain: SSSSSDEFEAEARFRFAEALAASLGDEETLERVRELLERYREEGDPEYLKEVIRLSRELRSSSSS
B20: il2ra_site2_2erj_normal_mot_HHH_b2_07015_000000077_0001_40_57_H_._HHH_b2_07938_af2_0001_0000100001_0000001_0 (protein)
chain: SSSSDVLEEAIRLVQELLKFLAEGDEEEAEKVLEEAERILEEAGNEAAVRIIREVFEQMSSSSSS
B21: il2ra_site2_2erj_sap_27_mot_HHH_eva_0077_000000062_0001_1_20_H_._ems_3hM_3632_0001_0000100009_0000001_0_0001 (protein)
chain: SSSLHETYELAVEALHEISRLLEEGNPEEAEKVLEEFLERLRELDDPNAAELLEDDFRATHSSSS
B22: il2ra_site1_1z92_normal_mot_30aa582283ecb64a35315be28fff3e94_0001_000000110_0001_35_49_H_._HHH_b1_02957_af2_0001_0000100017_0000001_0_af2pred_0001_af2pred_1 (protein)
chain: SSSSDSRERLAERLVEDLVRLAGLSEEQKEELEKVAEELVREGVDPHEIAKILEKLALELESSSS
B23: il2ra_site2_3nfp_sap_21_mot_HHH_b1_06006_000000068_0001_18_35_H_._c31511196a668cb7f26710e5913b1740_0001_1_af2_0001_0000200010_0000001_0_0001 (protein)
chain: SSSSNKAEEYVEAVLLIAERALEQGNPELAERSLRLAEQVAELHGNEELRERLEELLEKLSSSSS
B24: il2ra_site2_2erj_sap_24_mot_a018c15928f351c43b00908d5a7ba3e0_0001_000000190_0001_17_32_H_._64acf9c47b58a7ae4252630f76d6e6b2_0001_1_0001_0000300012_0000001_0_000 … (protein)
chain: SSSSDLEEEAERLVEELVREFGADERLELFLRLLAKKLARAGLSPEEIERALREAIELHRSSSSS

Target: il2ra, P01589
Experiment: yeast display titration

Apparent Kd, inactive:
B1 no binding seen, B2 no binding seen, B3 no binding seen, B4 no binding seen, B5 no binding seen, B6 no binding seen, B7 no binding seen, B8 no binding seen, B9 no binding seen, B10 > 1.5 µM, B11 no binding seen, B12 no binding seen, B13 no binding seen, B14 no binding seen, B15 no binding seen, B16 no binding seen, B17 no binding seen, B18 no binding seen, B19 no binding seen, B20 no binding seen, B21 no binding seen, B22 no binding seen, B23 no binding seen, B24 no binding seen
